Construct, isoform or probe ends are uncertain for at least one entry. No signal at the amounts used counts as a negative.
Assays:
[1] = system: CsGLK1 (Camellia sinensis); assay: EMSA; details: pH and temperature not stated; native PAGE, Beyotime GS009 chemiluminescent EMSA kit, 100-200x cold probe as competitor; recombinant protein; protein details: His (pET32a); label: biotin 3' end of sense strand
[2] = system: CsGLK2 (Camellia sinensis); assay: EMSA; details: pH and temperature not stated; native PAGE, Beyotime GS009 chemiluminescent EMSA kit, 100-200x cold probe as competitor; recombinant protein; protein details: His (pET32a); label: biotin 3' end of sense strand

TTAGAAGGAAACCGTGTTTCCTTACGTTTTGGAAGCAATTATATCACTGA (double strand) [CsMYB5b probe 2]
binding result [1]: binds
binding result [2]: binds

AATAAAATTGGAACAGTGTGTGTACGTGTAACGTGTTGTAAAGCATCAAC (double strand) [CsMYB5b probe 3]
binding result [1]: no binding
binding result [2]: no binding

TAAAATTTTATATTTAGAGATCCCAAACATTATTCAATTTTGAATCAGGA (double strand) [CsMYB5b probe 1]
binding result [1]: binds
binding result [2]: binds
